PubChem BioAssay AID1259254, NCATS – 2017
Screen: 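Gene knock-downs that lead to re-replication, shown by excess G2 DNA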 (primary screen). Cell system: human HCT116 colorectal cancer cells. Knock-down reagent: single siRNA against human genes. Duration: 3 days. Read-out: 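Nuclei stained with Hoechst and imaged; cell-cycle phase assigned by DNA content; G2 share scaled per plate, non-targeting siRNA 0%, GMNN siRNA 100%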. Reading the numbers: G2 robust z-score and G2 cells, % of GMNN control: higher = more G2 cells, more excess DNA replication. Rule for the call: 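An siRNA counts as active if its G2 robust z-score lies at least 5 MADs above the screen median; here such calls match roughly 38% of GMNN control or more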.
In all, the deposit lists about 59,000 reagents; shown is a part drawn at random. Of all reagents, about 1,550 (2.6%) got an active call. 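G2 share is only a proxy for re-replication; each gene was hit by three separate siRNAs, and active genes were retested.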 Entries without a mark were called inactive. The numbers tell different reagents against one gene apart. Not all columns of the deposit are shown. Not stated in the record: the amount of reagent.

{"Gene": "BTBD3", "reagent no.": 1, "G2 robust z-score": -1.21, "G2 cells, % of GMNN control": -5.54}
{"Gene": "BTBD3", "reagent no.": 2, "G2 robust z-score": -0.776, "G2 cells, % of GMNN control": -2.49}
{"Gene": "BTBD3", "reagent no.": 3, "G2 robust z-score": -1.24, "G2 cells, % of GMNN control": -5.77}
{"Gene": "ISY1", "reagent no.": 1, "G2 robust z-score": -0.0399, "G2 cells, % of GMNN control": 2.69}
{"Gene": "ISY1", "reagent no.": 2, "G2 robust z-score": 0.0314, "G2 cells, % of GMNN control": 3.19}
{"Gene": "ISY1", "reagent no.": 3, "G2 robust z-score": 0.785, "G2 cells, % of GMNN control": 8.49}
{"Gene": "ENPP1", "reagent no.": 1, "G2 robust z-score": 0.102, "G2 cells, % of GMNN control": 3.69}
{"Gene": "ENPP1", "reagent no.": 2, "G2 robust z-score": -0.0985, "G2 cells, % of GMNN control": 2.27}
{"Gene": "ENPP1", "reagent no.": 3, "G2 robust z-score": -0.193, "G2 cells, % of GMNN control": 1.61}

Reprinted from the listing (2 entries):
{"Gene": "ISY1", "reagent no.": 2, "G2 robust z-score": 0.0314, "G2 cells, % of GMNN control": 3.19}
{"Gene": "ISY1", "reagent no.": 3, "G2 robust z-score": 0.785, "G2 cells, % of GMNN control": 8.49}

The listing continues.
{"Gene": "LEFTY1", "reagent no.": 1, "G2 robust z-score": -0.121, "G2 cells, % of GMNN control": 2.12}
{"Gene": "LEFTY1", "reagent no.": 2, "G2 robust z-score": -0.953, "G2 cells, % of GMNN control": -3.74}
{"Gene": "LEFTY1", "reagent no.": 3, "G2 robust z-score": -0.73, "G2 cells, % of GMNN control": -2.17}
{"Gene": "MAN2B1", "reagent no.": 1, "G2 robust z-score": 0.477, "G2 cells, % of GMNN control": 6.33}
{"Gene": "MAN2B1", "reagent no.": 2, "G2 robust z-score": -1.44, "G2 cells, % of GMNN control": -7.19}
{"Gene": "MAN2B1", "reagent no.": 3, "G2 robust z-score": 0.221, "G2 cells, % of GMNN control": 4.52}
{"Gene": "AVEN", "reagent no.": 1, "G2 robust z-score": 0.365, "G2 cells, % of GMNN control": 5.53}
{"Gene": "AVEN", "reagent no.": 2, "G2 robust z-score": 0.288, "G2 cells, % of GMNN control": 5}
{"Gene": "AVEN", "reagent no.": 3, "G2 robust z-score": -0.583, "G2 cells, % of GMNN control": -1.14}
